For this test, the system named is acetic acid-induced writhing in mice. Further details: species or system ICR mice. Conditions: mouse, in vivo, ip. The procedure:
The ICR mice (18–22 g) used in this study were purchased from the Experimental Animal Center of SLac-kinda (Changsha, China). The animals were maintained at 20–25°C and freely allowed to standard rodent chow and water ad libitum. Ethical approval for in vivo experiments in animals was approved by the Animal Care and Use Committee (ACUC) at the Hunan Province Animal Management Office (HPAMO).
The abdominal writhing responses were counted for 30 min continuously.

`CN1CC[C@]23c4c5ccc(O)c4O[C@H]2[C@@H](O)C=C[C@H]3[C@H]1C5` [morphine, reference compound] displayed a writhing numbers of 11 ± 3.7.

(Values after PMC6198068, “Discovery of a Novel Nav1.7 Inhibitor From Cyriopagopus albostriatus Venom With Potent Analgesic Efficacy” (Frontiers in Pharmacology, 2018).)
